In publication PMC2860244:
These are yes or no findings as the source states them, for the method shown. Binding seen in cells or lysates may run through a third protein. A yes stands for co-enrichment or nearness to the bait. Other partners may have been found. For some assays here: No binding means not detected with the bait.

Amino acid sequences for entries named in this document (tags omitted). A change or cut given only in a name is not applied to a line headed by its entry. Chains listed by the source or under a name are the forms on record and can include a tag or linker.
FACT complex subunit SSRP1 (Q08943-2, form named): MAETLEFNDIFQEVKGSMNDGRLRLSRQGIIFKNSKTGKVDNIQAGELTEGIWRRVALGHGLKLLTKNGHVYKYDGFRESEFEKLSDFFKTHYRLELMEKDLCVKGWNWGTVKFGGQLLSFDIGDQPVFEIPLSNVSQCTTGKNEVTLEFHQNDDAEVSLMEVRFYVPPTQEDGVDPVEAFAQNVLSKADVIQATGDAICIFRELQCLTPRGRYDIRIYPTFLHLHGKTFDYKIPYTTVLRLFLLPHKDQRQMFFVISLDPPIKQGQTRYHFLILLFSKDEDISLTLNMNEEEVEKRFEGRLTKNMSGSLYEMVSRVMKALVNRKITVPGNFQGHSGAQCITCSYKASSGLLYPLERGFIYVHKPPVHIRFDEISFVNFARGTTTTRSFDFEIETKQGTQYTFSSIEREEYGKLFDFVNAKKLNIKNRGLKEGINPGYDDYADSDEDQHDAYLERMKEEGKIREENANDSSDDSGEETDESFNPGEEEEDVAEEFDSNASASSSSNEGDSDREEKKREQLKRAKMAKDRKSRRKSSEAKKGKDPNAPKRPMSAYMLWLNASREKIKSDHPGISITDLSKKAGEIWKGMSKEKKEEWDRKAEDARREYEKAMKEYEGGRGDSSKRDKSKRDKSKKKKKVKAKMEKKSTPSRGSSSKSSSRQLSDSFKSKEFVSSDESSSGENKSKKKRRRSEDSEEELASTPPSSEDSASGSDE
UniProt P11103: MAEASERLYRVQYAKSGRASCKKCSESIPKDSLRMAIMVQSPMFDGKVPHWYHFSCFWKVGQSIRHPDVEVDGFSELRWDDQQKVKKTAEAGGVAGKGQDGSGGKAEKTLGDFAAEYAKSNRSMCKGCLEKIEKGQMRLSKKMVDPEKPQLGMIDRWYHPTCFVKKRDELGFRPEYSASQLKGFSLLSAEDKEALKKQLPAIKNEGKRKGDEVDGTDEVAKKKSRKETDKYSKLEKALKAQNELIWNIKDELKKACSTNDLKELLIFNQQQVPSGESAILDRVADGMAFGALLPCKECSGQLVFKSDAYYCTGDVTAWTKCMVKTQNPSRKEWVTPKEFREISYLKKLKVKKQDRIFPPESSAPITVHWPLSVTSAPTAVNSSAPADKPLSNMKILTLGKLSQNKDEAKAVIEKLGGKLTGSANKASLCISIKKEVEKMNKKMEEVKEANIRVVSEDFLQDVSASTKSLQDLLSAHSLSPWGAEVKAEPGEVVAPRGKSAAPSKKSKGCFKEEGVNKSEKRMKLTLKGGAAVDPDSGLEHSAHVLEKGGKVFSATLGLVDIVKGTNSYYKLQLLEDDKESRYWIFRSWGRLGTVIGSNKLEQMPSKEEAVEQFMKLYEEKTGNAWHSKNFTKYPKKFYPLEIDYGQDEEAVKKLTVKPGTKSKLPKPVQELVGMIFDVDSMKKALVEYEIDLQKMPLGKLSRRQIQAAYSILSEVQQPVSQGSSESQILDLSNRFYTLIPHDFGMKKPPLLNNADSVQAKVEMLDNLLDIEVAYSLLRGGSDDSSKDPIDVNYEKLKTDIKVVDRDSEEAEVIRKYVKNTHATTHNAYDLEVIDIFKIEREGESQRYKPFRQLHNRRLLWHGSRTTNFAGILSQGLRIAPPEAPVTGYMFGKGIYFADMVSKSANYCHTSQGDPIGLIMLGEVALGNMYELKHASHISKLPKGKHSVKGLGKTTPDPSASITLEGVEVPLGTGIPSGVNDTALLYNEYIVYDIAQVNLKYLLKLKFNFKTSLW
UniProt P97496: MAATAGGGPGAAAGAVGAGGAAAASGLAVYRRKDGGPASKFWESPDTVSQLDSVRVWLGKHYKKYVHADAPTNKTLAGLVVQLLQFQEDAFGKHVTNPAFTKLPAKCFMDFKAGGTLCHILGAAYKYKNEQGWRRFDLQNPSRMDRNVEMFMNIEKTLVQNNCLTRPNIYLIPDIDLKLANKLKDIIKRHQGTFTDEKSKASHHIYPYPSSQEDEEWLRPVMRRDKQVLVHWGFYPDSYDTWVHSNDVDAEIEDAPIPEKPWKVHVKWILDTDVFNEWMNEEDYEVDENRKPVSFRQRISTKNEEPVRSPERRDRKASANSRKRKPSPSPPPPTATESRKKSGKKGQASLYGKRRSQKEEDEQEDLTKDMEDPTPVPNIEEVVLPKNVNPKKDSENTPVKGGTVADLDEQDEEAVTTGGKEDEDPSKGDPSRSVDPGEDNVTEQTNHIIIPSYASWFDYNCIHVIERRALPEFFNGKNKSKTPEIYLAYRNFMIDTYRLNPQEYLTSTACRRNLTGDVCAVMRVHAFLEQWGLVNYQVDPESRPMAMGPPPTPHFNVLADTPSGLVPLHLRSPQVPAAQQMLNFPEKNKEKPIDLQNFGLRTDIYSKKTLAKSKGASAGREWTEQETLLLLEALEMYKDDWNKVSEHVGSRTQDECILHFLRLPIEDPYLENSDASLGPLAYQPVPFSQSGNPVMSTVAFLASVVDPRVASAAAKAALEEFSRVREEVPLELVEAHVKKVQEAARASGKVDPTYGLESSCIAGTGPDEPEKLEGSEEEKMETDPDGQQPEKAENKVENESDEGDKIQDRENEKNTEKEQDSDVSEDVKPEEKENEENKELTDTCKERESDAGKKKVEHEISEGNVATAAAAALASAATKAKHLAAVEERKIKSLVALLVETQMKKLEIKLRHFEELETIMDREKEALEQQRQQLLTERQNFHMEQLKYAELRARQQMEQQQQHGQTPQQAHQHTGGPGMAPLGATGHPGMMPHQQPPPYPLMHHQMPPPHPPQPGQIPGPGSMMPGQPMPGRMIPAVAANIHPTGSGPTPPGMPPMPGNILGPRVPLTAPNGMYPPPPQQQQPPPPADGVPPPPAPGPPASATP
histone acetyltransferase MYST2 (Q5SVQ0-2, form named): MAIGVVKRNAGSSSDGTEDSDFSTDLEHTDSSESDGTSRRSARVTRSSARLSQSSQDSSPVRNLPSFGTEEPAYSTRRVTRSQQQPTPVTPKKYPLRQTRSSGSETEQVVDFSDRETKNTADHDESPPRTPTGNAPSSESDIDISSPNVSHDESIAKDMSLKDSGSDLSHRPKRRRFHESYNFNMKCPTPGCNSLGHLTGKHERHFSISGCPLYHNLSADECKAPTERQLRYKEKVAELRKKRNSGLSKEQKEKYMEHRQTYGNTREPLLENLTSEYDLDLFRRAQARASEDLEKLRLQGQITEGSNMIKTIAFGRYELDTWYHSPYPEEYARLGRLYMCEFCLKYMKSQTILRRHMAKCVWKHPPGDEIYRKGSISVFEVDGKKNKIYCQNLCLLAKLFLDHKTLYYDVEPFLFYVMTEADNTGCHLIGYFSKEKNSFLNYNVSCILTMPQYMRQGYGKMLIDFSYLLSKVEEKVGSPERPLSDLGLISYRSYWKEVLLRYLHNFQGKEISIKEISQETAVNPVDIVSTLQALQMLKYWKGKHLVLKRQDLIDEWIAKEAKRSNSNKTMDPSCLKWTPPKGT
UniProt Q9CQE6: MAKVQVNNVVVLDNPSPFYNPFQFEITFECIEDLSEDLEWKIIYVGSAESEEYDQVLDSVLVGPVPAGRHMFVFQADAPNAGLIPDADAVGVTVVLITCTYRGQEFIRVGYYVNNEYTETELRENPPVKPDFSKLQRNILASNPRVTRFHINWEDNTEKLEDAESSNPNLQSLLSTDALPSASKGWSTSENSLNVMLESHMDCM
UniProt Q6PIJ4: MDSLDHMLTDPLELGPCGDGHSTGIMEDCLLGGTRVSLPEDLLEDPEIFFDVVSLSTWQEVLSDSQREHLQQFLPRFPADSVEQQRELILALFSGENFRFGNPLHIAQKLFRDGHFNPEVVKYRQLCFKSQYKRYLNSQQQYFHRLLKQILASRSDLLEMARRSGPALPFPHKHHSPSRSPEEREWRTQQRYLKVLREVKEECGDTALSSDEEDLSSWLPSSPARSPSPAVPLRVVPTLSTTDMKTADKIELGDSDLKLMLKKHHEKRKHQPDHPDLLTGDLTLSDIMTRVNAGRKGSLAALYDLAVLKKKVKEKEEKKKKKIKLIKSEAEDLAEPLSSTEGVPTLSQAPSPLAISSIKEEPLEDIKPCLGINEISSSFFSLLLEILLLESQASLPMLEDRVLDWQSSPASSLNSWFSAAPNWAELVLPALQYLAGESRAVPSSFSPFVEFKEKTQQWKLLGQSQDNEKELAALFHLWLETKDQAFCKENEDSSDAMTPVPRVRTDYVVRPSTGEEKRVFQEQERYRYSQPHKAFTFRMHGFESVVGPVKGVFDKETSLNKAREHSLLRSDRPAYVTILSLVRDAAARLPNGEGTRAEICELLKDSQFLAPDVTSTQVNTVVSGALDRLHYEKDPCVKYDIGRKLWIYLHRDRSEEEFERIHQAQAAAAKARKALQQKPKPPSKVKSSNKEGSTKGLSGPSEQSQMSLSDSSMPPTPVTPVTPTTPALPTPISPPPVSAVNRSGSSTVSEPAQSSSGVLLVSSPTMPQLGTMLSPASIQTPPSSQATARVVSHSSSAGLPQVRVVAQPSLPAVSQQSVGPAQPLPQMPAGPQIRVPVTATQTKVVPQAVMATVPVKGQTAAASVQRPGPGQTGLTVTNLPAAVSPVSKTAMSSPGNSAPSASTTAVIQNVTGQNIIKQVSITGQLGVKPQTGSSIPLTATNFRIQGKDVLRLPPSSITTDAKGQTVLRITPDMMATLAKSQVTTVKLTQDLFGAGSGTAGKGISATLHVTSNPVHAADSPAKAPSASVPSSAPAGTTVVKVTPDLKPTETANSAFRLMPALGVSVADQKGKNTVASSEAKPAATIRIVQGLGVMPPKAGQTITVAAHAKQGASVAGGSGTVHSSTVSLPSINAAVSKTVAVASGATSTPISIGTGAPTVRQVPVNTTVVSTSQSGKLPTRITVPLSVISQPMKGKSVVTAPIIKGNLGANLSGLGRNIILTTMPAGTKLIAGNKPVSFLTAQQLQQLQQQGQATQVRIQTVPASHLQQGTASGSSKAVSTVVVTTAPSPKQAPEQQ
UniProt O35685: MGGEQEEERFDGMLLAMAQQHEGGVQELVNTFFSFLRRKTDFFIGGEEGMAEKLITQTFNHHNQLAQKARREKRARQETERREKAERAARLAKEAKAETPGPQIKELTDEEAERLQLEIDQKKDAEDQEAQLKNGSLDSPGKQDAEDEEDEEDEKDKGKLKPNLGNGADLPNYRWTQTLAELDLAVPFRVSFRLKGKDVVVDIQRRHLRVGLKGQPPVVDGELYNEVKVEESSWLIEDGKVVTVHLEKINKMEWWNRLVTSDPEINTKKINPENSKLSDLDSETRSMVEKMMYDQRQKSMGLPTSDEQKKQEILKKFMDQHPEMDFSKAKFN
UniProt Q9CQ71: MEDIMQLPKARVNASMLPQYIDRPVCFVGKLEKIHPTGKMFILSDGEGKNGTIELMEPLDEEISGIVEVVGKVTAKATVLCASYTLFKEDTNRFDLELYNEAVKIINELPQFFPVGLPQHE
UniProt Q8VEE4: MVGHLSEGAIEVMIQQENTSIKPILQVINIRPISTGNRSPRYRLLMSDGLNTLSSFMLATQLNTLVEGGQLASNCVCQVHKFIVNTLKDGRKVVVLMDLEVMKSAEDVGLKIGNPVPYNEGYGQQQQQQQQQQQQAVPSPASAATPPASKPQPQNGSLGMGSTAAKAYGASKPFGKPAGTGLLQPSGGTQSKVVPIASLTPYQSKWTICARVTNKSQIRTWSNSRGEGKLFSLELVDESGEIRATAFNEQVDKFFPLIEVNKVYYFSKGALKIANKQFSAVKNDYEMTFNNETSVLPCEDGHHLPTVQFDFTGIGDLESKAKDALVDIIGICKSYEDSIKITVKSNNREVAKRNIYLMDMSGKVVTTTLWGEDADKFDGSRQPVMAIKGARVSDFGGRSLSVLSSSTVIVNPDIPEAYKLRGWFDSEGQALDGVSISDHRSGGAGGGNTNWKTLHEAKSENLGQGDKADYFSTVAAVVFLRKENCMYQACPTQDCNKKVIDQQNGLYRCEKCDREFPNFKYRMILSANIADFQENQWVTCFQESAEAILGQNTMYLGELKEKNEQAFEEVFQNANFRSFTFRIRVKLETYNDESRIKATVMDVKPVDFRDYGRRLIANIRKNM
UniProt Q9R210: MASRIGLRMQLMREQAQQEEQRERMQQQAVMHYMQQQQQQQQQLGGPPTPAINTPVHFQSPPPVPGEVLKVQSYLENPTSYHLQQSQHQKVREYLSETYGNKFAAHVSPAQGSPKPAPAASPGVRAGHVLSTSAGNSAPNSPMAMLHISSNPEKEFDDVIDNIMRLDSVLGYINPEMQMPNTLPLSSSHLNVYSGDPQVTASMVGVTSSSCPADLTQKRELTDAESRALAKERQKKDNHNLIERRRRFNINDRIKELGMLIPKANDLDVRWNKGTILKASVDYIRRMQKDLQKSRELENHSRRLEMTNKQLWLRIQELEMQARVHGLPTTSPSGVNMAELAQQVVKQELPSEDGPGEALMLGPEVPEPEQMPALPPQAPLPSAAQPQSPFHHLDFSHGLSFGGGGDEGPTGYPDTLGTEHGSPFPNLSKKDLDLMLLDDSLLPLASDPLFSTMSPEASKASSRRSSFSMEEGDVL

Assays:
[1] = molecular target: Oct4-FTAP fusion protein (mouse) (UniProt P20263); test: affinity purification with mass spectrometry; one-step purification on anti-FLAG M2 Dynal beads from whole-cell extracts of Oct4-FTAP ESCs against unmodified control cells (AB2.2); 150 mM NaCl, 0.1% NP-40, 90 min, 4°C; elution with AcTEV protease; three independent purifications; LC-MS/MS
[2] = molecular target: Oct4-FTAP fusion protein (mouse) (UniProt P20263); test: affinity purification with mass spectrometry; tandem affinity purification: TEV eluate of the anti-FLAG step incubated with calmodulin resin 60 min, 4°C; elution with EGTA; LC-MS/MS

| binding [1] | binding [2] | Substance |
| --- | --- | --- |
| binds |  | AT motif binding factor 1 (from UniProt Q61329 1-3726) |
| binds |  | ATP-dependent DNA helicase 2 subunit 1 (from UniProt P23475 1-608) |
| binds |  | ATP-dependent DNA helicase 2 subunit 2 (from UniProt P27641 1-732) |
| binds |  | Angiomotin-like protein 2 (from UniProt Q8K371 1-772) |
| binds |  | C-terminal-binding protein 1 (from UniProt O88712 1-441) |
| binds |  | C-terminal-binding protein 2 (from UniProt P56546-2 1-988) |
| binds |  | DNA repair protein XRCC1 (from UniProt Q60596 1-631) |
| binds |  | DNA topoisomerase 2-alpha (from UniProt Q01320 1-1528) |
| binds |  | DNA-binding protein RFX2 (from UniProt P48379-2) |
| binds |  | DnaJ homolog subfamily A member 1 (from UniProt P63037 1-397) |
| no binding |  | EWS (from UniProt Q61545 1-655) |
| binds |  | FACT complex subunit SSRP1 (from UniProt Q08943-2 1-713) |
| binds |  | Hnrnpu (from UniProt Q8VEK3 1-800) |
| binds |  | Importin subunit alpha-3 (from UniProt O35344 1-521) |
| binds |  | Matrin-3 (from UniProt Q8K310 1-846) |
| binds |  | MutS homolog 6 (from UniProt P54276 1-1358) |
| no binding |  | NF45 (from UniProt Q9CXY6 1-390) |
| binds |  | Parp1 (from UniProt P11103 1-1013) |
| binds |  | Protein Jade-1 (from UniProt Q6ZPI0 1-834) |
| binds |  | REST corepressor 2 (from UniProt Q8C796 1-523) |
| binds |  | Requiem/Dpf2 (from UniProt Q61103 1-391) |
| binds |  | SWI/SNF complex subunit SMARCC1 (from UniProt P97496 1-1104) |
| binds |  | SWI/SNF related, matrix associated, actin dependent regulator of chromatin, subfamily a, member 4, isoform CRA_b (from UniProt Q3TKT4 1-1613) |

| binding [1] | binding [2] | Substance |
| --- | --- | --- |
| binds |  | SWI/SNF-related matrix-associated actin-dependent regulator of chromatin subfamily A member 5 (from UniProt Q91ZW3 1-1051) |
| binds |  | Sal-like protein 4 (from UniProt Q8BX22 1-1067) |
| binds |  | Serine/threonine-protein phosphatase 2A 65 kDa regulatory subunit A alpha isoform (from UniProt Q76MZ3 1-589) |
| no binding |  | Wwp2 (from UniProt Q9DBH0 1-870) |
| no binding |  | Zfp206 (from UniProt Q3URR7 1-782) |
| binds |  | bromodomain and WD repeat-containing protein 1 (from UniProt Q921C3 1-2304) |
| binds |  | cAMP response element-binding protein (from UniProt Q01147-1) |
| binds |  | carbamoyl-phosphate synthetase 2, aspartate transcarbamylase, and dihydroorotase (from UniProt B2RQC6 1-2225) |
| binds |  | chromodomain helicase DNA binding protein 5 isoform1 (from UniProt A2A8L1 1-1946) |
| binds |  | chromodomain-helicase-DNA-binding protein 1 (from UniProt P40201 1-1711) |
| binds |  | histone acetyltransferase MYST2 (from UniProt Q5SVQ0-2 1-583) |
| binds |  | histone chaperone ASF1A (from UniProt Q9CQE6 1-204) |
| binds |  | microphthalmia-associated transcription factor (from UniProt Q08874 1-526) |
| binds |  | nuclear factor related to kappa-B-binding protein (from UniProt Q6PIJ4 1-1296) |
| binds |  | nuclear migration protein nudC (from UniProt O35685 1-332) |
| binds |  | protein HIRA (from UniProt Q61666 1-1015) |
| binds |  | putative DNA helicase INO80 complex homolog 1 (from UniProt Q6ZPV2 1-1559) |
| binds |  | replication protein A 14 kDa subunit (from UniProt Q9CQ71 1-121) |
| binds |  | replication protein A 70 kDa DNA-binding subunit (from UniProt Q8VEE4 1-623) |
| binds | binds | transcription factor EB (from UniProt Q9R210 1-475) |
| binds |  | uncharacterized protein KIAA2030 (from UniProt Q80WC1-4 1-1316) |
| binds |  | zinc finger protein 297B isoform a (from UniProt Q9DAI4) |
| binds |  | zinc finger protein ZIC 2 (from UniProt Q62520 1-530) |
